Measurements published in PMC3235137.
These are yes or no findings as the source states them, for the method shown. Binding seen in cells or lysates may run through a third protein. Here binding means that the protein was enriched with, or labelled near, the bait; the list need not be complete.

Sequences of proteins named here, by UniProt entry; tags and fusion partners are left off.
UniProt Q8AYS8: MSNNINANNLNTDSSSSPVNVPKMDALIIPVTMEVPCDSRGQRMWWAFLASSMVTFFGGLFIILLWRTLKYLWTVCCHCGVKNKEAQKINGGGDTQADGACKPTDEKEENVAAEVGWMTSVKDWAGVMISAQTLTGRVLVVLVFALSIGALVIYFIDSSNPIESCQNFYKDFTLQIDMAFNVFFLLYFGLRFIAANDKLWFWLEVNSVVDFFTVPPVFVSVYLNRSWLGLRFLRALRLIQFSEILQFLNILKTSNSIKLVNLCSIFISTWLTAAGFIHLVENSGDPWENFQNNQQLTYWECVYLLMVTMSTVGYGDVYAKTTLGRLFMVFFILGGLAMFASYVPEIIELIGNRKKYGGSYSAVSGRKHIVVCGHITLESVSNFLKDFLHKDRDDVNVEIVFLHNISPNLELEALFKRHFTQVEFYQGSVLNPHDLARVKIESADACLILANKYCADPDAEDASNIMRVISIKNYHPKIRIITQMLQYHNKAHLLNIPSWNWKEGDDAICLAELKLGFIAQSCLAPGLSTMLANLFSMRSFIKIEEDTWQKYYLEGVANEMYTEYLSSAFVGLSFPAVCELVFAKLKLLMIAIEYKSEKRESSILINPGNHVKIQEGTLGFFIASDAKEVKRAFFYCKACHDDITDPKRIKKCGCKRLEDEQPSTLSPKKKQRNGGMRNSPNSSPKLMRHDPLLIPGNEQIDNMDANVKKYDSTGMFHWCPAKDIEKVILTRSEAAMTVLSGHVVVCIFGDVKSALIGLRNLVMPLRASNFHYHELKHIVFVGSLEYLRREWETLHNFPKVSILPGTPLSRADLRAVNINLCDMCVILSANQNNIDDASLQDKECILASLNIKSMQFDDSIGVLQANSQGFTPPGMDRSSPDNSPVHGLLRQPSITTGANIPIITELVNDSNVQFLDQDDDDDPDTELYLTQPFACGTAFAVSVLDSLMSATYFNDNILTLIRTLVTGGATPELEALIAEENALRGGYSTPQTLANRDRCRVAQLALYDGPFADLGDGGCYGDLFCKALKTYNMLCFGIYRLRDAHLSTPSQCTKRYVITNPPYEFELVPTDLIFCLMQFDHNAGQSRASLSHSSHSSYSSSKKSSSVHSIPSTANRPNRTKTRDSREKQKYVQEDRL

B1: 14-3-3γ (protein, UniProt Q5F3W6 1-247)
chain: MVDREQLVQKARLAEQAERYDDMAAAMKNVTELNEPLSNEERNLLSVAYKNVVGARRSSWRVISSIEQKTSADGNEKKIEMVRAYREKIEKELGAVCQDVLSLLDNYLIKNCSETQYESKVFYLKMKGDYYRYLAEVATGEKRATVVESSEKAYSEAHEISKEHMQPTHPIRLGLALNYSVFYYEIQNAPEQACHLAKTAFDDAIAELDTLNEDSYKDSTLIMQLLRDNLTLWTSDQQDDDGGEGNN
B2: lin-7 homolog C (protein, UniProt Q5F425 1-197)
chain: MAALGEPVRLERDICRAIELLEKLQRSGEVPPQKLQALQRVLQSEFCNAVREVYEHVYETVDISSSPEVRANATAKATVAAFAASEGHSHPRVVELPKTEEGLGFNIMGGKEQNSPIYISRIIPGGIADRHGGLKRGDQLLSVNGVSVEGEHHEKAVELLKAAQGKVKLVVRYTPKVLEEMESRFEKMRSAKRRQQN
B3: prohibitin (protein, UniProt P84173 1-272)
chain: MAAKVFESIGKFGLGLAVAGGVVNSALYNVDAGHRAVIFDRFRGVQDTVVGEGTHFLIPWVQKPIIFDCRSRPRNIPVITGSKDLQNVNITLRILFRPVTAQLPRIFTSIGEDYDERVLPSITTEILKSVVARFDAGELITQRELVSRQVSEDLTERAATFGLILDDVSLTHLTFGKEFTEAVEMKQVAQQEAERARFIVEKAEQQKKAAVISAEGDSKAAELIANSLATAGDGLIELRKLEAAEDIAYQLSRSRNITYLPSGQSVLLQLPQ
B4: stathmin (protein, UniProt P31395 1-148)
chain: MATSDIQVKELEKRASGQAFELILGPRSKEAAPEFPLSPPKKKDLSLEEIQKKLEAAEERRKSHEAEVLKQLAEKREHEKEVLQKAIEENNNFSKMAEEKLTHKMEANKENREAQMAAKLERLREKDKHIEEVRKNKEGKDPGEAETN
B5: annexin A5 (protein, UniProt P17153 1-321)
chain: MAKYTRGTVTAFSPFDARADAEALRKAMKGMGTDEETILKILTSRNNAQRQEIASAFKTLFGRDLVDDLKSELTGKFETLMVSLMRPARIFDAHALKHAIKGAGTNEKVLTEILASRTPAEVQNIKQVYMQEYEANLEDKITGETSGHFQRLLVVLLQANRDPDGRVDEALVEKDAQVLFRAGELKWGTDEETFITILGTRSVSHLRRVFDKYMTISGFQIEETIDRETSGDLEKLLLAVVKCIRSVPAYFAETLYYSMKGAGTDDDTLIRVMVSRSEIDLLDIRHEFRKNFAKSLYQMIQKDTSGDYRKALLLLCGGDDE
B6: heat shock protein (HSP) 60 (protein, UniProt Q5ZL72 27-573)
chain: AKDVKFGADARALMLQGVDLLADAVAVTMGPKGRTVIIEQSWGSPKVTKDGVTVAKAIDLKDKYKNIGAKLVQDVANNTNEEAGDGTTTATVLARAIAKEGFEKISKGANPVEIRRGVMLAVDAITAELKKLSKPVTTPEEIAQVATISANGDQEIGNIISDAMKKVGRKGVITVKDGKTLNDELEIIEGMKFDRGYISPYFINTAKGQKCEFQDAYVLISEKKISSVQSIVPALEIANSHRKPLVIIAEDVDGEALSTLVLNRLKVGLQVVAVKAPGFGDNRKNQLKDMAIATGGAVFGEEGLSLNVEDIQPHDFGKVGEVIVTKDDTMLLKGKGEKAQIEKRIQEIIEQLEVTTSEYEKEKLNERLAKLSDGVAVLKVGGTSDVEVNEKKDRVTDALNATRAAVEEGIVPGGGCALLRCIPALDALKPANEDQKIGIEIIKRTLKIPAMTIAKNAGVEGSLIVEKILQSSSEVGYDAMLGEFVNMVEKGIIDPTKVVRTALMDAAGVASLLSTAEAVVTEVPKEEKEPAMGGMGGMGGGMGGGMF

target: large-conductance Ca2+-activated K+ (BK) channel α-subunit (chicken (endogenous in chick cochlea)) (UniProt Q8AYS8); assay: affinity purification with mass spectrometry; polyclonal anti-BKα (Chemicon) immunocomplex capture on protein G beads from membrane/cytoskeletal (1% ASB-14) and cytoplasmic fractions of chick cochlea; 2-D gel, LC-MS/MS; controls: irrelevant antibody, unbound beads

Q: For B1, which binding is on record?
A: Its binding is “binds”.

Q: Which binding does the source give for B2 here?
A: Its binding is “binds”.

Q: B3 was tested. Which binding did it give?
A: The binding was “binds”.

Q: With B4 as the binder, how does the binding read?
A: Its binding is “binds”.

Q: With B5 as the binder, how does the binding read?
A: The binding was “binds”.

Q: For B6, which binding is on record?
A: Its binding is “binds”.
